Results published in PubChem BioAssay AID1347426 (Functional Genomics Laboratory (NCATS/FGL), 2020).
Hit rate of the full screen: of about 31,000 sequences, about 1,400 (4.5%) were called active.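 The calls were made as follows: active = median seed-adjusted z-score above 1 or below -1; inactive = the rest.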 Some of the results follow.

experiment: Novel Modifiers of Survival Motor Neuron (SMN) Protein: Gene Identification via Genome-wide siRNA Screen; conditions: HEK293T SMN2-luciferase reporter, siRNA knockdown, 72 h; actives lie on both sides
Method in brief: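 Each of three siRNAs per gene is reverse-transfected (1 pmol) into reporter HEK293T cells whose luciferase output tracks SMN protein level. After 72 h culture, ONE-Glo luminescence is control-normalized, log10-transformed and MAD-standardized; Common Seed Analysis deprioritizes seed-driven hits.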

Sequence	median seed-adjusted z-score
CGAUGUAAUUGUCAACAUATT against HTRA4	inactive: 0.838
GGCUCAAACUGGGAGUCAATT against POLDIP3	inactive: 0.108
CGACUCUUGUCUACAAGCATT against AIRE	inactive: 0.308
GGCUAUGGCGUUUCCAGCATT against HNRNPA1L2	inactive: 0.732
CGCUGUAUCUGGAGAGGUUTT against B4GALNT4	inactive: -0.567
GCACCAUCUGAAAACAACATT against UBE2B	inactive: 0.333
GGACAUAGGAGGAGAUGCATT against 9-Mar	inactive: 0.261
GGAAGGGACUAUGAACCGATT against PDZD2	inactive: -0.00167
CAGACGUAGUAAUCGAUGUTT against DHX57	inactive: -0.138
CAGCUAAGAAAAGACCAUATT against ZNF92	inactive: -0.375
CAAGACUUCGAGGCAGAUATT against SCAMP5	inactive: -0.303
GAACUCACCCAGACAAACATT against CREB5	inactive: -0.0542
CUGCUGUUGUUACCGGAAATT against RPGR	inactive: 0.1
CCAACAUGCUAAUCACCUATT against MAP3K12	inactive: -0.6
GGCUGUACCAUUCAACUGUTT against MAP1A	inactive: -0.17
GGAGUUUCGGCCUCACUGATT against NME6	inactive: -0.304
CUAUAAGAGAUGUCCUAAATT against LRPPRC	inactive: -0.373
ACAUGCCUGUGAUCGUCAATT against SOX13	inactive: 0.867
GGGUAUCCCUGGUCAGUAATT against BCAS2	inactive: -0.639
CGCCUACGUCGUGUACUAUTT against LRRC3	inactive: -0.0448
GAGACAAGCUCAACGAGAATT against NOP14	inactive: -0.344
CAUUGUCGGUGUUUCUGCATT against CGA	inactive: 0.0904

Sequence	median seed-adjusted z-score
GCUGAGUUCUUUCGACCUATT against PEX3	inactive: 0.142
GGUCUUUGACGUGGUCUUUTT against SBK1	inactive: 0.0587
GGGUAUCACUGGAGUCUGATT against NDUFA1	inactive: 0.182
GGCUCAAGAAGCACGCGUATT against CRLF1	inactive: -0.45
CCACCAAUCACGAACCUAATT against IL3RA	inactive: -0.951
UGCAGCCUCUCCAAACUUATT against SP6	inactive: -0.176
CCGAUAUUCUUAUAUAUGUTT against ARL3	inactive: 0.551
GGCUGUACAGUUAUAUCAATT against NAPG	inactive: 0.0128
AGGUGUUCAUCGGCGUAAATT against GRHL3	inactive: -0.0434
GAGUUUAGAGAGAAAAUCATT against TRIM13	inactive: 0.712
AGUGGGAAGUCGUCACUUUTT against ZNF137	inactive: 0.0526
CCAUUAACAUCGAUAUCAATT against GDPD1	inactive: 0.527
GGCUAUAGAAGAGACCUCATT against FCRL2	inactive: -0.294
GCAUCGGCACCAUCGUCUATT against ULK1	inactive: -0.214
CCUUGCAAGAUGACGAUUATT against ZFYVE26	inactive: 0.0495
CCGGGUUUUUAAUCGCUUATT against TTLL7	inactive: 0.00109
GCACAUGUUUGGAGGAUUUTT against ZNRF2	inactive: 0
GCAGCUACCUCAGGAAUGATT against MAP4K2	inactive: -0.439
GCAACGAUCUGAAAGUCAUTT against ECHDC3	inactive: 0.378
CAUGGACAUUGACAAGGUATT against CHMP4A	inactive: -0.209
GGAAAUCUUUUAUCCGAAATT against ZNF530	inactive: 0.0381
GAGUACUCAUAGGAUUUGATT against WIF1	inactive: -0.521

Copied from the list.
median seed-adjusted z-score, UGCAGCCUCUCCAAACUUATT against SP6 is entered as inactive: -0.176
median seed-adjusted z-score, CUAUAAGAGAUGUCCUAAATT against LRPPRC is entered as inactive: -0.373
median seed-adjusted z-score, CAGACGUAGUAAUCGAUGUTT against DHX57 is entered as inactive: -0.138

Remaining list, next part

Sequence	median seed-adjusted z-score
AGGGAGACCUGGAACCUGATT against AIPL1	inactive: -0.259
GGACUUCCACCGUAAGGUATT against RASD2	inactive: 0.0673
CGAAGGAUCUUGACGAGGATT against ABCG8	inactive: -0.0233
CUAGAGUAAUUGAAGAUAATT against LYN	inactive: -0.178
GGUCCUGAGUGUGAUGUCATT against IL20RB	inactive: -0.413
GGAAAUCUCGUGAUUUUCATT against TEAD1	active: 1.31
GGAUGAGAAAACUCGCUUUTT against COPA	inactive: -0.807
UGAAGAUCCAAGUGCGAAATT against FCER1G	inactive: 0.136
GGAGAAGUCAGAUUAUGUATT against SOX1	inactive: 0.415
GACUGAACCUUGGGCAGAATT against SIGLEC9	inactive: 0
GCGUGGUUUUGGUCGACUATT against PTPRE	inactive: 0.619
CCUAUUUAAUCGACAGAGATT against KCTD5	inactive: -0.748
GCAGAAAUAGGUUACCGGATT against TTK	inactive: -0.658
GGACAUACAAAGAGCCUAATT against ELOVL4	inactive: 0.166
GAUUCGAUCUAAUAACAGUTT against ZRANB3	inactive: 0.0516
ACAAGGUGGAGUUUCUUAATT against KCNC3	inactive: 0.279
GCAGAGGAGUCAAUGCUAUTT against ARL8B	inactive: -0.477
GCUCUAUUGUGGACGAUGATT against IQGAP2	inactive: 0.194
GGUUGGUUGUAUUUCCAGATT against ELOVL5	inactive: -0.734
CAAUUGCUCAGGGAUAUGATT against NNT	inactive: 0.336
CACCCUCAACGGCCUCAAATT against ELAVL3	inactive: -0.151
GCCUCAUCGAGGGAACUAUTT against CCS	inactive: 0.0581

Sequence	median seed-adjusted z-score
GCUUGUUCCAGAAUCGAGATT against KIF18A	inactive: -0.159
CGGAGGAAUUUGAGUCUUATT against OC90	inactive: 0.216
GGAUACAACGGAUCAUAUUTT against FIGN	inactive: -0.2
GCAUCUGUGAGGAUAUUGATT against FBN3	inactive: 0.264
CCACUAAGAGAAUACAGGATT against KLK6	inactive: 0.176
GCAUGUUGAUAAACAUCCATT against SRD5A1	inactive: 0.0945
GGUGUUCAGUGGAAAGCGATT against TNK2	inactive: -0.574
GGUACCUUGUGGUCUAUAATT against MAN2A1	inactive: -0.397
GCGAAUGGUUUCAAGAUAATT against PMS1	inactive: 0.0538
ACAAUAAGCUGGACCUCUATT against TLR9	inactive: -0.0834
CGUCAUUGCCGUUAAGCAATT against MAP2K7	inactive: -0.772
CCAUGGAUUUUGUACUGCUTT against VPS35	inactive: -0.511
CCCUCAAGAUGAUCCCGAUTT against SPRYD5	inactive: 0.151
AAAUCCCGGUGAUCAUCGATT against MAP1LC3A	inactive: 0
GCAACUCCCUGAAUUUUUATT against MYL1	inactive: 0.24
GCUUUCCGAUGAUGAGAGATT against LEO1	active: 1.2
GAACUUUUGGGACCAAAUATT against NME5	inactive: 0.393
GAAUUCCUCCUGAUAGUUUTT against ZBED4	inactive: -0.553
CAAACCUGGUGUUCGUGUATT against CDK5R2	inactive: -0.0965
GGACUGCUGGUUAUCCUGATT against GLB1	inactive: -0.543
GCUGAAUAUCUACACGGAATT against SLCO4A1	inactive: -0.0802
GCUGGUACCCGUCAACAAATT against ABCC10	active: -1.56

Sequence	median seed-adjusted z-score
CACCGUUUAUGGAUUGGGATT against HOMER1	inactive: 0
CGAGAGUAUUGAUAAUUCATT against PI4KB	inactive: 0.105
UGAGAGAGUCCACUACUUATT against GPR162	inactive: 0.195
GGAUGUGCACUCUCAUUGATT against COPA	inactive: -0.807
CAAGCAGUACAACAAGUUUTT against UCKL1	inactive: 0.695
GGCUUUGACUGGGUGUAUUTT against IHH	inactive: 0.0642
CCUUAUAGUUCACACCUUATT against ZNF267	inactive: 0.381
AGAUAAGAAUCGCAUGACATT against ARHGAP9	inactive: 0
CGUUAUUCAUAAGAGGAUUTT against ZNF331	inactive: 0.415
GGUAAGAAGCUGUACGGAUTT against ZNF214	inactive: 0.467
CCAUAGCAGUAAUGAUACATT against GRIN3A	inactive: 0.241
GACUGAACUGAAUAACUGUTT against TRIM63	inactive: -0.376
CACAGAAUCUUAUCACAGUTT against IRF9	inactive: 0.114
GGAGCAAGCUUUAUUCGUUTT against MYO6	inactive: 0
GCAUUGAACAAAGCUAAAATT against CDC6	inactive: 0.0196
ACUUUGCAAUCGCUCAAAATT against NPTX1	inactive: -0.117
CGACAGUACUUUGCCCUAATT against TRIM39	inactive: 0.41
CAACGGAAGUGCUACUACUTT against FCER2	active: -1.75
AGGACAAUGUGGAUGGGCATT against REXO1	inactive: -0.748
GGAAUCCGAUUUUUCGAAATT against RAB13	inactive: -0.599
